Measured values: patent US20060057657A1, “Stem cell selection and differentiation” (Oregon Health & Science University Technology & Research …, priority 2002, published 2006)
Some results were stated once for a whole list of compounds, not compound by compound.

System: ES cells
Test: JC-1 fluorescence sensitivity to MDR inhibitors (JC-1 staining and flow cytometry)
Assay type: cell-based, mouse
Details: CsA 20 μM, verapamil 200 μM, reserpine 10 μM; added 30 minutes prior to JC-1 staining
Description: ES cells were maintained in ES cell media consisting of DMEM (no pyruvate, high glucose) (Gibco-BRL), 15% fetal calf serum (FCS) (Hyclone), and supplements (as described in Robertson, E. J. (1987) IRL Press Limited, Oxford, page 71-112). Supplemental Leukemia Inhibitory Factor (LIF) (1:1000 dilution) was prepared by transfecting COS-7 cells (ATCC) with a LIF expression vector, pCAGGS-LIF, then collecting and testing the supernatant 48 hours later (as described in Smith, A. (1991) Journal of Tissue Culture Methods 13:89-94). Irradiated mouse embryonic fibroblasts (MEFs) were derived from d13 embryos for use as feeder cells (as described in Robertson (1987) (supra)). […]
For MDR inhibitor dose response assays, cells were trypsinized for 15 minutes, quenched with ES cell media, triturated to a single cell suspension, and centrifuged at 1000 rpm for 5 minutes. […] Following centrifugation, cells were washed […] with cold HBSS, centrifuged and resuspended in cold PBS at the same concentration, placed on ice, and analyzed within 60 minutes (as described in Cossarizza et al. (1993) Biochem. Biophys. Res. Commun. 197:40-45). […]
Using the cationic fluorescent dye, JC-1, functionally distinct populations of ES cells were identified. […] Generally, less than 5% of the cells maintained a “JC-1 green only” fluorescence profile when treated with any of these inhibitors. […]

## COc1ccc(CCN(C)CCCC(C#N)(c2ccc(OC)c(OC)c2)C(C)C)cc1OC (stereo not shown) [verapamil]
  cells that maintained a "JC-1 green only" fluorescence profile: less than 5%
